PubChem BioAssay AID504847 (National Center for Advancing Translational Sciences (NCATS), 2011)
Hit rate of the full screen: of about 400,000 compounds, about 3,700 (0.93%) were called active. Inconclusive means that the source gave no clear call. Such entries were picked first, then a sample of the others. Calls follow the shape of the dose curve; as a rule, active = well fitted inhibition curve with a large enough effect; inconclusive = small, poorly fitted or top-dose-only effect, or another doubt; inactive = no such curve, though single readings can be large or run the other way. A potency beside an inconclusive call is a rough fit, not a confirmed value.

Protein sequences, listed by entry. Tags and fused reporters are not part of them. Lines headed by an entry give the natural chain unless they say otherwise; changes in a name come on top.
UniProt P11473: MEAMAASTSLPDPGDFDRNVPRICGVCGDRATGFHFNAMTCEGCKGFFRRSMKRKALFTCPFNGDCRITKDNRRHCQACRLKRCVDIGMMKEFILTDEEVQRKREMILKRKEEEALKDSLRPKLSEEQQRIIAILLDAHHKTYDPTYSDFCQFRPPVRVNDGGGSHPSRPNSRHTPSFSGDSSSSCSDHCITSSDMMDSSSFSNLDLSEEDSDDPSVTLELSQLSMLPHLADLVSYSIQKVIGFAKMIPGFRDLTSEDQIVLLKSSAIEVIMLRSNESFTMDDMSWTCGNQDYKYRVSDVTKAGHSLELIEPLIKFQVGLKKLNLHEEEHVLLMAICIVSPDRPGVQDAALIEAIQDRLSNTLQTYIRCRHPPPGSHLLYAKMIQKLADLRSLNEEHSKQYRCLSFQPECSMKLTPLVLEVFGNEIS

Biological target: Vitamin D3 receptor (Homo sapiens) (UniProt P11473)
Assay: Inhibitors of the vitamin D receptor (VDR): qHTS
Conditions: VDR-SRC2-3 peptide fluorescence polarization, 2 h; max response, negative = inhibition: hits give low values
Procedure, shortened: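 Fluorescence polarization assay measuring small-molecule disruption of VDR binding to the coregulator peptide SRC2-3. Compounds were pin-transferred (23 nl) into the reagent mix and incubated 2 h at room temperature before reading.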
% is scaled to controls: 0 for no effect and ±100 for the full control effect; potency is read from the fitted curve at half-maximal effect.

Structure (SMILES) | Potency | max response, negative = inhibition
CSc1nnc(N2C(=O)C(O)=C(C(=O)c3ccco3)C2c2ccccc2)s1 (stereo not drawn) | inconclusive: 39.8 µM [inhibitor, partial curve, poor fit] | –
Cc1cc(C)n2c(SCC(=O)Nc3ccc(F)cc3)nnc2n1 | inconclusive: 56.2 µM [inhibitor, partial curve, poor fit] | –
COC(=O)c1cccc(-n2[nH]nnc2=S)c1 | active: 79.4 µM | –
CCOC(=O)CSc1nc2c(sc(=S)n2-c2ccccc2)c(=O)n1-c1ccc(OC)cc1OC | inconclusive: 79.4 µM [inhibitor, partial curve] | –
CC(C)C1Cc2c(C#N)c(N)sc(=S)c2CO1 (stereo not drawn) | inconclusive: 89.1 µM [inhibitor, single point] | –
C=CCOC1=CS(=O)(=O)N(Cc2ccc(Br)cc2)c2ccc(Br)cc21 | inconclusive: 100 µM [inhibitor, partial curve, poor fit] | –
c1ccc(OCC2CCNCC2)nc1 | – | inactive: 4.54%
COc1ccc2[nH]c(=O)c(CN(Cc3nnnn3Cc3ccco3)C3CCCCC3)cc2c1 | active: 79.4 µM | –
O=C(O)COc1ccccc1/C=C1\SC(=O)N(Cc2ccc(F)cc2)C1=O | inconclusive: 28.2 µM [inhibitor, partial curve, poor fit] | –
Cc1cc(Cl)ccc1NC(=S)NCCC(c1ccccc1)c1ccccc1 | – | inactive: -14.4%
Cc1nnc(NC(=O)CSc2ccc(-c3ccco3)nn2)s1 | inconclusive: 70.8 µM [inhibitor, single point] | –
COc1ccc(NC(=O)c2c(NC(=O)c3ccc(Br)cc3)sc3c2CCCC3)cc1 | inconclusive: 39.8 µM [inhibitor, partial curve, poor fit] | –
CC(=O)Nc1ccc(S(=O)(=O)Oc2cccc(/C=C3\SC(N)=NC3=O)c2)cc1 | active: 35.5 µM | –
COC(=O)c1c(NC(=O)CN2CCN(c3cccc(Cl)c3)CC2)sc(C)c1C | – | inactive: 5.73%
O=C1C=C(c2cccc(OCc3ccccc3)c2)C[C@@H](c2ccc3c(c2)OCO3)C1 | inconclusive: 100 µM [inhibitor, partial curve, poor fit] | –
O=C(NCCC1CC1(Cl)Cl)c1ccc([N+](=O)[O-])cc1 (stereo not drawn) | inconclusive: 79.4 µM [inhibitor, partial curve, poor fit] | –
CCCCCCCCCCCCCCC(C(=O)O)C(O)(CC(=O)OC)C(=O)O (stereo not drawn) | active: 22.4 µM | –
O=C1CSC(c2cccnc2)N1CCc1ccccn1 (stereo not drawn) | inconclusive: 100 µM [inhibitor, partial curve, poor fit] | –
CC(=O)Cc1nsc(Nc2ccc(C)cc2)n1 | inconclusive: 79.4 µM [inhibitor, single point] | –
CCOC(=O)N1CCN(C(c2cccnc2)c2ccc3cccnc3c2O)CC1 (stereo not drawn) | active: 39.8 µM | –
Cc1ccc(N(CC(=O)Nc2cccc(Cl)c2)S(=O)(=O)c2cccs2)cc1 | inconclusive: 63.1 µM [inhibitor, partial curve, poor fit] | –
O=C(O)c1cccc(N2C(=O)/C(=C/c3ccc(SCc4ccc(Cl)cc4)o3)SC2=S)c1 | – | inactive: -29.8%
Cc1cc(OCC(O)CN2CCCC2)ccc1C(C)C (stereo not drawn) | inconclusive: 100 µM [inhibitor, single point] | –

Of the compounds above, 9 contain a halogen.
Structure (SMILES) | Potency | max response, negative = inhibition
Cc1cc(C)n2c(SCC(=O)Nc3ccc(F)cc3)nnc2n1 | inconclusive: 56.2 µM [inhibitor, partial curve, poor fit] | –
C=CCOC1=CS(=O)(=O)N(Cc2ccc(Br)cc2)c2ccc(Br)cc21 | inconclusive: 100 µM [inhibitor, partial curve, poor fit] | –
O=C(O)COc1ccccc1/C=C1\SC(=O)N(Cc2ccc(F)cc2)C1=O | inconclusive: 28.2 µM [inhibitor, partial curve, poor fit] | –
Cc1cc(Cl)ccc1NC(=S)NCCC(c1ccccc1)c1ccccc1 | – | inactive: -14.4%
COc1ccc(NC(=O)c2c(NC(=O)c3ccc(Br)cc3)sc3c2CCCC3)cc1 | inconclusive: 39.8 µM [inhibitor, partial curve, poor fit] | –
COC(=O)c1c(NC(=O)CN2CCN(c3cccc(Cl)c3)CC2)sc(C)c1C | – | inactive: 5.73%
O=C(NCCC1CC1(Cl)Cl)c1ccc([N+](=O)[O-])cc1 (stereo not drawn) | inconclusive: 79.4 µM [inhibitor, partial curve, poor fit] | –
Cc1ccc(N(CC(=O)Nc2cccc(Cl)c2)S(=O)(=O)c2cccs2)cc1 | inconclusive: 63.1 µM [inhibitor, partial curve, poor fit] | –
O=C(O)c1cccc(N2C(=O)/C(=C/c3ccc(SCc4ccc(Cl)cc4)o3)SC2=S)c1 | – | inactive: -29.8%

(cont.)

Structure (SMILES) | Potency | max response, negative = inhibition
COC(=O)N1C(=O)[C@](c2ccccc2)(C2CCCC2)N1C(=O)OC | inconclusive: 56.2 µM [inhibitor, partial curve, poor fit] | –
COc1cc(/C=C2\SC(N)=NC2=O)cc(OC)c1 | inconclusive: 89.1 µM [inhibitor, single point] | –
COc1cc(-c2cc(C(=O)Nc3cc(S(=O)(=O)N4CCOCC4)ccc3O)c3ccccc3n2)cc(OC)c1OC | inconclusive: 79.4 µM [inhibitor, partial curve, poor fit] | –
O=C1CCCN1c1ccc(S(=O)(=O)NCc2ccc(F)cc2)cc1 | – | inactive: 15%
Cc1c(O[C@@H]2O[C@H](CO)[C@@H](O)[C@H](O)[C@H]2O)c(CO)c(O[C@@H]2O[C@H](CO)[C@@H](O)[C@H](O)[C@H]2O)c2c1O[C@@H](c1ccccc1)C[C@@H]2O | inconclusive: 31.6 µM [inhibitor, partial curve, poor fit] | –
COc1ccc(-c2c3c(=O)n(C)c(=O)n(C)c3cn2-c2cc(OC)ccc2OC)cc1 | – | inactive: 15.1%
FC(F)Oc1ccc(/C=N/c2c(-c3ccc(OC(F)F)cc3)nc3n2CCS3)cc1 | inconclusive: 44.7 µM [inhibitor, single point] | –
COc1cc(/C=C2\SC(=S)N(NC(=O)c3ccccc3O)C2=O)ccc1O | inconclusive: 25.1 µM [inhibitor, partial curve, poor fit] | –
CC12CCC=CC1C(c1ccc(F)c(Br)c1)N(Cc1ccccc1)C2=O (stereo not drawn) | inconclusive: 56.2 µM [inhibitor, partial curve, poor fit] | –
COc1ccc(C2C3=C(CC(C)(C)CC3=O)Nc3c2c(=O)n(C)c(=O)n3C)cc1OC (stereo not drawn) | inconclusive: 79.4 µM [inhibitor, partial curve, poor fit] | –
Cc1[nH]c2ccccc2c1/C=N/NC(N)=S | – | inactive: -3.45%
COc1ccc(C2=NC(c3ccc(Cl)cc3)C(c3ccc(Cl)cc3)N2C(=O)N2CCNC(=O)C2)c(OC(C)C)c1 (stereo not drawn) | active: 50.1 µM | –
Cc1ccc(-c2cc(-c3ccc(F)cc3)c(C#N)c(N)n2)o1 | inconclusive: 79.4 µM [inhibitor, partial curve, poor fit] | –
CC(C)(C)NC(=O)NC(=O)CSc1ncccn1 | – | inactive: -19.1%
COc1ccc(NC(=O)c2c(NC(=O)CCC(=O)O)sc(-c3ccccc3)c2C)cc1 | inconclusive: 89.1 µM [inhibitor, single point] | –
O=C(O)c1cccc(S(=O)(=O)N2CCN(C(c3ccccc3)c3ccccc3)CC2)c1 | – | inactive: 0.816%
CCCCN1C(C(=O)c2ccccc2)=C(OC(C)=O)c2ccccc2S1(=O)=O | inconclusive: 28.2 µM [inhibitor, single point] | –
COc1cccc2c(=S)c(CCC(C)=O)c(C)[nH]c12 | – | inactive: -6.08%
CCOC(=O)c1c[nH]c2c(C)ccc(Cl)c2c1=O | active: 79.4 µM | –
O=C(Nc1nccs1)c1cnccn1 | – | inactive: 12.7%
COc1ccc(CN2COc3ccc4c(C)cc(=O)oc4c3C2)cc1 | – | inactive: 7.59%
O=c1[nH]c(Cc2ccc(F)cc2)nc2scc(-c3ccc(F)cc3)c12 | inconclusive: 56.2 µM [inhibitor, partial curve, poor fit] | –
CCc1c(C(C)S(=O)(=O)c2ccc(C)cc2)[nH]c(=O)n1-c1ccc(C)cc1 (stereo not drawn) | inconclusive: 7.08 µM [inhibitor, full curve, poor fit] | –

3 structures out of the list, ordered by number of heavy atoms, largest number first.
Structure (SMILES) | Potency | max response, negative = inhibition
CCc1c(C(C)S(=O)(=O)c2ccc(C)cc2)[nH]c(=O)n1-c1ccc(C)cc1 (stereo not drawn) | inconclusive: 7.08 µM [inhibitor, full curve, poor fit] | –
COC(=O)N1C(=O)[C@](c2ccccc2)(C2CCCC2)N1C(=O)OC | inconclusive: 56.2 µM [inhibitor, partial curve, poor fit] | –
CCOC(=O)c1c[nH]c2c(C)ccc(Cl)c2c1=O | active: 79.4 µM | –

Next entries

Structure (SMILES) | Potency | max response, negative = inhibition
N#CC1C(=O)NC(c2ccccc2)=CC1c1ccccc1 (stereo not drawn) | – | inactive: -10.6%
CC(=O)Nc1cccc(N)c1 | inconclusive: 100 µM [inhibitor, single point] | –
O=C(NCC1CC1)c1ccc2c3n(nc2c1)-c1ccccc1CO3 | – | inactive: 3.9%
CCN(C(=O)COc1cc(=O)n(C)c2ccccc12)c1cccc(C(F)(F)F)c1 | inconclusive: 100 µM [inhibitor, single point] | –
C#CCNC(=O)C(C)c1ncc(C(F)(F)F)cc1Cl (stereo not drawn) | inconclusive: 25.1 µM [inhibitor, partial curve] | –
O=C(Nc1nc(-c2ccco2)c(-c2ccco2)s1)c1ccc(F)cc1F | inconclusive: 89.1 µM [inhibitor, single point] | –
CCOc1ccc(C(=O)Nc2ccc(-c3nc4cc(CC)ccc4o3)cc2)cc1 | – | inactive: -1.99%
O=C1CC(c2ccccc2)CN1C(=O)c1cncc(Br)c1 (stereo not drawn) | inconclusive: 89.1 µM [inhibitor, single point] | –
COC1=C(Br)C(=O)c2ncccc2C1=O | active: 3.55 µM | –
CC1(C)O[C@@H]2CC3C4C[C@H](F)C5=CC(=O)C=CC5(C)C4C(O)CC3(C)[C@]2(C(=O)CO)O1 (stereo partly drawn) | inconclusive: 56.2 µM [inhibitor, partial curve, poor fit] | –
Cn1nnnc1SCC1=C(C(=O)O)N2C(=O)C(NC(=O)C(O)c3ccccc3)C2SC1 (stereo not drawn) | active: 50.1 µM | –
Cc1cc(C)n2c(Nc3c(C)cccc3C)c(-c3ccsc3)nc2n1 | inconclusive: 44.7 µM [inhibitor, full curve, poor fit] | –
Cc1cccc(N2CCN(C(=O)Cc3cn(C)c4ccccc34)CC2)c1C | active: 20 µM | –
CN(Cc1ccco1)c1cc(-c2cccc(NS(C)(=O)=O)c2)ncn1 | inconclusive: 50.1 µM [inhibitor, partial curve] | –
O=C1C=CC(=O)N1c1ccc2ccccc2c1 | active: 79.4 µM | –
Cc1cc(Oc2nc3ccccn3c(=O)c2/C=C(\C#N)C(=O)NC2CCS(=O)(=O)C2)ccc1Cl (stereo not drawn) | active: 31.6 µM | –
Cc1ccc(C(=O)Sc2cccccc2=O)cc1 | active: 20 µM | –
C=CCn1c(CSc2nc3ccccc3s2)nnc1SCC(=O)OCC | – | inactive: 9.45%
O=C(c1cc(C(F)(F)F)cc(C(F)(F)F)c1)N1CCC[C@@]2(CCN(c3ccccn3)C2)C1 | inconclusive: 50.1 µM [inhibitor, partial curve, poor fit] | –
CCOC(=O)c1ccc(-n2c(CCC(=O)O)ccc2-c2cccs2)cc1 | inconclusive: 56.2 µM [inhibitor, partial curve, poor fit] | –
COc1ccc(S(=O)(=O)NCCc2cn3ccsc3n2)cc1OC | – | inactive: 1.71%
Cc1nc(C)c(C(=O)N(c2ccccc2F)C(C(=O)NCC2CCCO2)c2ccccc2)s1 (stereo not drawn) | inconclusive: 89.1 µM [inhibitor, single point] | –
